Data source: PubChem BioAssay AID720505 (Drosophila RNAi Screening Center, 2013)

Screen: 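Genes needed for store-operated calcium entry in fly cells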 (primary screen)
Cell system: Drosophila S2R+ cells
Reagents: long dsRNA against Drosophila genes
Challenge: thapsigargin (2 µM) in calcium-free buffer to empty internal stores, then 2 mM calcium added back
Read-out: 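Fluo-4 signal in 384-well plates read on a FLIPR after thapsigargin (2 µM, calcium-free) store depletion and 2 mM calcium add-back; unnormalised mean endpoint per well; screen run twice, selected wells retested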
Direction: calcium signal and retest calcium signal: higher = more calcium entry after store depletion
Call rule: 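About 1500 genes called as lowering calcium entry, by varying amounts, judged against per-plate control wells with STIM1 as positive and Rho1 as negative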
Calls: active = called as lowering calcium entry; inactive = not called
The deposit covers about 20,000 reagents; shown is an unselected part of those that have a named target and a result. In the full data, about 2,100 (10%) were called active. 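Raw plate signals without normalisation; calls rest on control-based scores that were not deposited; replicate 2 separates called from uncalled poorly.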 Reagent sequences are not shown. Not stated in the record: the amount of reagent, the time to read-out.

predicted target	dsRNA	calcium signal, replicate 1	calcium signal, replicate 2	retest calcium signal, replicate 1	retest calcium signal, replicate 2	activity call
mthl15 (methuselah-like 15)	DRSC01120	165	105			inactive
CG1773	DRSC06688	163	90.4			inactive
AANATL5 (Arylalkylamine N-acetyltransferase-like 5)	DRSC05994	121	138			inactive
CG11655	DRSC19413	77.1	129			inactive
eIF3c (eukaryotic translation initiation factor 3 subunit c)	DRSC06905	122	115			inactive
CG17237	DRSC00491	188	138			inactive
CG31524	DRSC22014	91.1	130			inactive
inaC (inactivation no afterpotential C)	DRSC07632	112	90			inactive
CG1840	DRSC19806	137	149			inactive
jhamt (juvenile hormone acid methyltransferase)	DRSC01985	97	102			inactive
Mon1 (Monensin sensitivity 1)	DRSC00336	114	87.7			inactive
ben (bendless)	DRSC20310	97.3	84.5			inactive
ben (bendless)	DRSC21261	154	85.6			inactive
Hr51 (Hormone receptor 51)	DRSC06627	96.5	195			inactive
Hr51 (Hormone receptor 51)	DRSC22829	112	104			inactive
Obp56g (Odorant-binding protein 56g)	DRSC06432	182	165			inactive
CG7102	DRSC02647	115	195			inactive
CG7102	DRSC03007	138	115			inactive
Phae1 (Phaedra 1)	DRSC02554	101	97.2			inactive
upd1 (unpaired 1)	DRSC20358	76.2	106			inactive
CG33262	DRSC22893	95.1	181			inactive
CG15169	DRSC02470	149	79.4			inactive
CG7544	DRSC07023	78.7	141			inactive
Neu2 (Neuroectoderm-expressed 2)	DRSC11819	91.7	122			inactive
Ttd14 (TRPL translocation defect 14)	DRSC06632	125	110			inactive
Ttd14 (TRPL translocation defect 14)	DRSC06942	187	151			inactive
CG7841	DRSC10922	105	135			inactive
14-3-3epsilon	DRSC16370	194	189			inactive
EndoU (Endoribonuclease U-specific)	DRSC15472	113	168			inactive
Brd7-9 (Bromodomain containing 7/9)	DRSC03017	146	269			inactive
Wdr81 (WD repeat domain 81)	DRSC02985	88	94.8			inactive
CG15731	DRSC19698	46.8	104			active
CG15731	DRSC21820	179	67.1			inactive
fs(1)K10 (female sterile (1) K10)	DRSC18775	85	95.9			inactive
CG5768	DRSC15870	232	257			inactive
Cat (Catalase)	DRSC11110	98.7	137			inactive
CG31817	DRSC01537	188	85.8			inactive
CG31817	DRSC01538	209	92.4	6585	85.4	inactive
CG31817	DRSC22476	97.1	207			inactive
CG15044	DRSC19620	91.2	150			inactive
CG15044	DRSC21385	130	80.7			inactive
SRPK (SR Protein Kinase)	DRSC07090	80.4	102			active
kek2 (kekkon 2)	DRSC03552	186	121			inactive
Pex11ab (Peroxin 11a/b)	DRSC07145	134	143			inactive
her (hermaphrodite)	DRSC03543	115	108			inactive
Tdc1 (Tyrosine decarboxylase 1)	DRSC04942	131	144			inactive
Fbp1 (Fat body protein 1)	DRSC11166	93.4	174			inactive
Obp49a (Odorant-binding protein 49a)	DRSC22562	94	150			inactive
IKKepsilon (I-kappaB kinase epsilon)	DRSC03550	201	121			inactive
PPO1 (Prophenoloxidase 1)	DRSC05929	177	166			inactive
Rbf2 (Retinoblastoma-family protein 2)	DRSC16816	121	209			inactive
hrm (hermes)	DRSC04853	96.5	223			inactive
CG42697	DRSC05740	105	133			inactive
CG32036	DRSC10362	89	101			inactive
Vmat (Vesicular monoamine transporter)	DRSC06961	140	112			inactive
Vmat (Vesicular monoamine transporter)	DRSC06962	125	182			inactive
Vmat (Vesicular monoamine transporter)	DRSC22223	62.4	254			inactive

A stretch from the list above, for reference:
predicted target	dsRNA	calcium signal, replicate 1	calcium signal, replicate 2	retest calcium signal, replicate 1	retest calcium signal, replicate 2	activity call
kek2 (kekkon 2)	DRSC03552	186	121			inactive
Pex11ab (Peroxin 11a/b)	DRSC07145	134	143			inactive
her (hermaphrodite)	DRSC03543	115	108			inactive
Tdc1 (Tyrosine decarboxylase 1)	DRSC04942	131	144			inactive
Fbp1 (Fat body protein 1)	DRSC11166	93.4	174			inactive
Obp49a (Odorant-binding protein 49a)	DRSC22562	94	150			inactive
IKKepsilon (I-kappaB kinase epsilon)	DRSC03550	201	121			inactive
PPO1 (Prophenoloxidase 1)	DRSC05929	177	166			inactive
Rbf2 (Retinoblastoma-family protein 2)	DRSC16816	121	209			inactive
